No constants are given. Whether binding was seen depends on the method and setting. Binding seen in cells or lysates may run through a third protein. Some results given as binding are weak or reduced against the parent protein; the word gives no strength. Tags and fused reporters may be left off the sequences shown.
Target: T1, dTBCE-GFP expressed in Drosophila embryos (Drosophila melanogaster) (UniProt A1Z6J5)
T1 sequence: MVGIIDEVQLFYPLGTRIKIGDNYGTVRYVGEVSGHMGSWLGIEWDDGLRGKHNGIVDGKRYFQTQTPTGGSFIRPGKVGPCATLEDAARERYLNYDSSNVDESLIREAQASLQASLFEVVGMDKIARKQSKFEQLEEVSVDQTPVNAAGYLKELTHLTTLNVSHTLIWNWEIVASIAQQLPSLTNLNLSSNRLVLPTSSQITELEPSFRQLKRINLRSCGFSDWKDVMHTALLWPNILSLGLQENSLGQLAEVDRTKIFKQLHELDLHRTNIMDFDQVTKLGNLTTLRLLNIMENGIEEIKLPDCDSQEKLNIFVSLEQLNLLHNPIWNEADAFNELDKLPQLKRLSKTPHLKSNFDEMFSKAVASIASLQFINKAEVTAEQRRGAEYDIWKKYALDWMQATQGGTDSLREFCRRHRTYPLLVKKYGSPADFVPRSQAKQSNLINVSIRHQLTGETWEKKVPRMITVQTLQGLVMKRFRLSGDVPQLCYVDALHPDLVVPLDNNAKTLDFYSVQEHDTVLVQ
Test: co-IP

binding: binds
Substance: Ran (from UniProt Q9VZ23 1-216)
